Measurements published in patent publication US20100125052A1.
No constants are given. Whether binding was seen depends on the method and setting. Some entries that bind do so weakly or less than the wild type.

The chains behind the UniProt entries cited, without tags or fusion partners. Where a name states a change or a piece, a line headed by the entry shows the natural chain unless it says otherwise.
UniProt P00742: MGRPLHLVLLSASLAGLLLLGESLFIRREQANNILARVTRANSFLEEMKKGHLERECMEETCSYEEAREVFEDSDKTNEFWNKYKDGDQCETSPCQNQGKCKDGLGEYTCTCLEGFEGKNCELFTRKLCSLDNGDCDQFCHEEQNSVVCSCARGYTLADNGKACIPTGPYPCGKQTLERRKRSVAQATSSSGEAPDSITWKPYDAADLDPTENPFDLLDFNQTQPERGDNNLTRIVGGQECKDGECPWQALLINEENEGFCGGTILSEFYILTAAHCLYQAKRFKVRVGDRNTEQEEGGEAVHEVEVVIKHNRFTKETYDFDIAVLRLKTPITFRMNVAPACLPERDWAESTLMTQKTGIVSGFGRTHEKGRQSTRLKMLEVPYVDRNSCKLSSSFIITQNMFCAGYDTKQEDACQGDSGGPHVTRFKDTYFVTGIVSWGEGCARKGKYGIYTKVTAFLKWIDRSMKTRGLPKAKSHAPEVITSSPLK

Target: r-Antidote (recombinant antidote; human factor Xa triple mutant after removal of the -RKRRKR- linker) (human) (UniProt P00742)
Test: affinity chromatography of conditioned medium on immobilised soybean trypsin inhibitor

binding: binds
B1: soybean trypsin inhibitor-agarose (STI-Agarose, Sigma Catalog #T0637) (protein, UniProt P01070 25-205, looked up)
chain: DFVLDNEGNPLENGGTYYILSDITAFGGIRAAPTGNERCPLTVVQSRNELDKGIGTIISSPYRIRFIAEGHPLSLKFDSFAVIMLCVGIPTEWSVVEDLPEGPAVKIGENKDAMDGWFRLERVSDDEFNNYKLVFCPQQAEDDKCGDIGISIDHDDGTRRLVVSKNKPLVVQFQKLDKESL
modifications: coupled to agarose
